The assay concerns the target Myc-DDK tagged TSPO construct (translocator protein 18kDa) (UniProt P30536). The experiment in a line: co-IP.

Amino acid sequences for entries named in this document (tags omitted).
UniProt P30536: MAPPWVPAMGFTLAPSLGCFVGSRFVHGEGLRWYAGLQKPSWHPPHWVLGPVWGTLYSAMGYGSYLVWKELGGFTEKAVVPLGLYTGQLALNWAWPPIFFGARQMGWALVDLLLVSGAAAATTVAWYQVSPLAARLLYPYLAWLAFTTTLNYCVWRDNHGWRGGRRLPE
UniProt P21796: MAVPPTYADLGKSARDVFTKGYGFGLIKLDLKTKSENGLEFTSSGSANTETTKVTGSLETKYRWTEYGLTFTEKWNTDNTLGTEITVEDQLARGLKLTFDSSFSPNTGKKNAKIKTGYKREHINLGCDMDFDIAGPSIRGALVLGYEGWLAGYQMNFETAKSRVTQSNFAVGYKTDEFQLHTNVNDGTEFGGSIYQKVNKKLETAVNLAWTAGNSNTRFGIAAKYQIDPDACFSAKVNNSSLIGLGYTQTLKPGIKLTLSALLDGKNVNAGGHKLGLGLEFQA

No constants are given. Whether binding was seen depends on the method and setting. Binding seen in cells or lysates may run through a third protein. Some binding calls cover weakened binding; strength is not graded here.

Take “voltage dependent anion channel 1 (VDAC1), endogenous in U373 cells (from UniProt P21796 1-283)”: the binding result is “binds”.
